Results taken from PMC8899368.
No constants are given. Whether binding was seen depends on the method and setting. In cells and extracts the contact can be indirect. Some results given as binding are weak or reduced against the parent protein; the word gives no strength.

Protein sequences, listed by entry. Tags and fused reporters are not part of them.
UniProt O15409: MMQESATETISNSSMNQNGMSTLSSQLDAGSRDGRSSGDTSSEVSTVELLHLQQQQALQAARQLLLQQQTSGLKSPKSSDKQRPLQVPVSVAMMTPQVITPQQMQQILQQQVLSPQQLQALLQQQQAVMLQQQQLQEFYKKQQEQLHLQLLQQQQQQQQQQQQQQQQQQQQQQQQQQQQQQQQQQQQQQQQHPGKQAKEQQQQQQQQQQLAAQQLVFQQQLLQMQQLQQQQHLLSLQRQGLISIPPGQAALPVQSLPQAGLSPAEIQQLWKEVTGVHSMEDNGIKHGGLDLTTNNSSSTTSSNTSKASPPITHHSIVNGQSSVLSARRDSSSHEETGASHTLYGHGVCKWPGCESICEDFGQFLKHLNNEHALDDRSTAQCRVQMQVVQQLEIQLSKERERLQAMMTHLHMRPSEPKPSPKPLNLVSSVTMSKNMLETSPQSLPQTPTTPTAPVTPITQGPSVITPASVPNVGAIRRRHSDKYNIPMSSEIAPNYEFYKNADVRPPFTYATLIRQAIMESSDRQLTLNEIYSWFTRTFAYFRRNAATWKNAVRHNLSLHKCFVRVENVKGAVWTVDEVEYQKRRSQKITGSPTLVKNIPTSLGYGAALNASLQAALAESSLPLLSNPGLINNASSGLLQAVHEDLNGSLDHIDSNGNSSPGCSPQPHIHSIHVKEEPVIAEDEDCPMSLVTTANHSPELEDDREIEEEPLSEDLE
UniProt P29466: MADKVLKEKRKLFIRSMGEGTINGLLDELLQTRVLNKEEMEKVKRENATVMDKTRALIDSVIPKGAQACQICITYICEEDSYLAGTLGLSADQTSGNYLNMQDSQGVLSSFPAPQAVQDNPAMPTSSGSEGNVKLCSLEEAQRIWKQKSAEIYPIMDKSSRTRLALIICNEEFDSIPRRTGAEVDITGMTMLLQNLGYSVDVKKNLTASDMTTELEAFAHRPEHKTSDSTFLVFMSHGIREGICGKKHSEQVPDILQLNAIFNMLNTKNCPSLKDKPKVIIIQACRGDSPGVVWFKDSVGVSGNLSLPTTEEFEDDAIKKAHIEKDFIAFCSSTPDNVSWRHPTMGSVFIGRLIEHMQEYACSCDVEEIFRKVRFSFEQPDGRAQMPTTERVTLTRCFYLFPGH

Target: FOXP2 (human (endogenous in HCT116 and SW480)) (UniProt O15409)
Assay: co-IP; endogenous proteins in RIPA lysates of HCT116 and SW480 cells; precipitated with anti-FOXP2 and anti-caspase-1 antibodies on Protein A-Agarose, overnight at 4°C; IgG as control; Western blot with the same antibodies

- binding: binds
Substance: caspase-1 (from UniProt P29466 1-404)
